{
  "sequences": {"note": "Chains of the proteins cited; added tags and fusions are not shown.", "UniProt P27695, whole entry, looked up": "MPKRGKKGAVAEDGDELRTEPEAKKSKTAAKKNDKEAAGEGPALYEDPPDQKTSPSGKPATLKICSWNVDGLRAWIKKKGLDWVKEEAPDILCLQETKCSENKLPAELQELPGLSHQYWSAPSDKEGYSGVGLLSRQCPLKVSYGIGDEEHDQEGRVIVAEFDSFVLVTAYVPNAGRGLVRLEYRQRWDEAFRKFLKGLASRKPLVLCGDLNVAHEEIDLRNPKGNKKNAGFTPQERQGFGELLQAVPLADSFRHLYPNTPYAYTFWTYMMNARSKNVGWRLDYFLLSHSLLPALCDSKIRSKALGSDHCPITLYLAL"},
  "source": "PubChem BioAssay AID2517",
  "about": "(National Center for Advancing Translational Sciences (NCATS), 2010)",
  "note": "About 1,200 (0.34%) of roughly 350,000 compounds were called active. The inconclusive results got no clear call from the source; some entries with a clear call stand among them for comparison. Calls follow the shape of the dose curve; as a rule, active = well fitted inhibition curve with a large enough effect; inconclusive = small, poorly fitted or top-dose-only effect; inactive = no such curve, though single readings can be large or run the other way. Potencies of inconclusive entries are doubtful fits and often do not repeat. Potency is read from the fitted curve at half-maximal effect.",
  "data": [
    {"molecular_target": "DNA repair nuclease/redox regulator APEX1 (Homo sapiens) (UniProt P27695)", "test": "qHTS Assay for Inhibitors of the Human Apurinic/apyrimidinic Endonuclease 1 (APE1); also: nearly all actives have a fitted effect of over 55% in size;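 as to activity change, negative = inhibition: plate controls were vehicle for no effect and reference inhibitor for full effect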", "conditions": "recombinant APE1, TAMRA/BHQ-2 abasic DNA cleavage fluorescence; activity change, negative = inhibition: at 65.8 µM (top of the series)", "in_short": "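Compound pre-exposure to 0.75 nM APE1, 15 min at ambient temperature. Reaction initiated with 50 nM TAMRA/BHQ-2 THF substrate, read immediately in kinetic mode, 525 nm excitation, 598 nm emission.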", "values": [
      {"smiles": "Cc1cccc(NC(=O)CC2Nc3cccc4cccc(c34)NC2=O)c1", "note": "(stereo unspecified)", "Potency": "inconclusive: 3.16 µM [inhibitor, full curve, poor fit]"},
      {"smiles": "CN(C)c1ncc2nc(-c3ccccc3)c(=O)n(CCc3ccccc3)c2n1", "Potency": "inconclusive: 56.2 µM [inhibitor, partial curve]"},
      {"smiles": "COC(OC)c1nc(SCC(=O)Nc2cccc(Cl)c2)ncc1C(=O)O", "Potency": "inconclusive: 3.16 µM [inhibitor, full curve, poor fit]"},
      {"smiles": "O=C(c1coc(=O)c(Br)c1)N1CCC(C(O)(c2ccccc2)c2ccccc2)CC1", "activity change, negative = inhibition": "inactive: 1.97%"},
      {"smiles": "N[C@@H](C(=O)O)c1cc(O)ccc1Cl", "Potency": "inconclusive: 1.12 µM [inhibitor, full curve, poor fit]"},
      {"smiles": "O=C(CCC(=O)Nc1ccccc1)N/N=C/c1ccco1", "Potency": "inconclusive: 35.5 µM [inhibitor, single point]"},
      {"smiles": "Cc1cccc(O)c1", "Potency": "inactive"},
      {"smiles": "COc1cc(C(CCN2CCCC2)c2c(OC)cc(OC)c3c2OC(=O)CC3c2ccc(N(C)C)cc2)cc(OC)c1OC", "note": "(stereo unspecified)", "activity change, negative = inhibition": "inactive: -3.11%"},
      {"smiles": "COc1cccc(-c2cc(=O)c3cc(NC(=O)c4ccc(N(C)C)cc4)ccc3[nH]2)c1", "Potency": "inconclusive: 5.62 µM [inhibitor, single point]"},
      {"smiles": "NC(=O)Cn1c(=O)n(CCC(=O)Nc2ccc(F)cc2)c(=O)c2sccc21", "activity change, negative = inhibition": "inactive: 29.9%"},
      {"smiles": "Cc1ccc(NC2=C([N+](=O)[O-])CS(=O)(=O)C2)cc1", "activity change, negative = inhibition": "inactive: -3.71%"},
      {"smiles": "O=c1oc2c3c4c(cc2s1)CCCN4CCC3", "Potency": "active: 28.2 µM"},
      {"smiles": "Cn1cnnc1SCC(=O)NNC(=O)COc1ccc(Cl)cc1", "Potency": "inconclusive: 44.7 µM [inhibitor, single point]"},
      {"smiles": "Cc1cc(Cl)ccc1OCC(=O)OC(C)C(=O)N(C)C", "note": "(stereo unspecified)", "Potency": "inconclusive: 39.8 µM [inhibitor, single point]"},
      {"smiles": "CCC(CC)C(=O)NCCc1cc2c(OC)ccc(OC)c2[nH]c1=O", "Potency": "inconclusive: 39.8 µM [inhibitor, single point]"},
      {"smiles": "O=C1OCCC1Sc1nc2ccccc2c(=O)n1Cc1ccc(F)cc1", "note": "(stereo unspecified)", "activity change, negative = inhibition": "inactive: 1.01%"},
      {"smiles": "CC(=O)C(C(C)=O)C1(O)C(=O)c2ccccc2C1=O", "Potency": "inconclusive: 28.2 µM [inhibitor, partial curve, poor fit]"},
      {"smiles": "Cc1onc(-c2ccccc2)c1C(=O)Nc1sc2c(c1C(N)=O)CCC2", "activity change, negative = inhibition": "inactive: 8.63%"},
      {"smiles": "Cc1csc(NC(=O)CCCc2cccs2)n1", "Potency": "inconclusive: 3.55 µM [inhibitor, partial curve, poor fit]"},
      {"smiles": "COc1ccc(NC(=O)Cc2ccc(-c3ccccc3)cc2)cn1", "Potency": "inconclusive: 4.47 µM [inhibitor, single point]"},
      {"smiles": "C=C(C)Cn1c(CCn2c3ccccc3c3ccccc32)n[nH]c1=S", "Potency": "inconclusive: 2.24 µM [inhibitor, full curve]"},
      {"smiles": "O=[N+]([O-])c1cccc2c(S(=O)(=O)N3CCCCC3)cccc12", "activity change, negative = inhibition": "inactive: 45%"},
      {"smiles": "Cc1ccc(N2CC(=O)N(CC(=O)O)C2=O)cc1", "activity change, negative = inhibition": "inactive: 2.28%"},
      {"smiles": "Cc1ccc(OC(C)C(=O)Nc2ccc(C)c(S(=O)(=O)Nc3ccc(C)cc3C)c2)cc1", "note": "(stereo unspecified)", "Potency": "inconclusive: 31.6 µM [inhibitor, single point]"},
      {"smiles": "O=C(N/N=C/c1cc2ccccc2nc1Cl)c1ccncc1", "activity change, negative = inhibition": "inactive: -3.73%"},
      {"smiles": "CCCCNC(=O)COC(=O)c1ccc(Cl)c(S(=O)(=O)N2CCCC2)c1", "Potency": "inconclusive: 31.6 µM [inhibitor, single point]"},
      {"smiles": "CN(C)C(=O)c1ccc(NC(=O)COc2ccc([N+](=O)[O-])cc2)cc1", "Potency": "inconclusive: 4.47 µM [inhibitor, full curve, poor fit]"},
      {"smiles": "O=C(/C=C/c1ccc(Cl)cc1)NC(=S)Nc1ccc(C(=O)O)cc1", "Potency": "inconclusive: 23.8 µM [inhibitor, single point]"},
      {"smiles": "C/C(=N\\NC(=O)c1ccc(CSc2nc(C)cc(C)n2)cc1)c1ccco1", "activity change, negative = inhibition": "inactive: 8.01%"},
      {"smiles": "CC(=O)N[C@@H](c1ccccc1)[C@]1(C)C[C@H]1[C@@H](C)C(=O)Nc1ccc2ccccc2c1", "Potency": "inconclusive: 22.4 µM [inhibitor, partial curve, poor fit]"},
      {"smiles": "CCC(C)Nc1nc(-c2cccc(OC)c2O)nc2ccccc12", "note": "(stereo unspecified)", "Potency": "inconclusive: 5.01 µM [inhibitor, full curve, poor fit]"},
      {"smiles": "Fc1cccc(Cl)c1CNC(c1ccccc1)c1ccccc1", "Potency": "inconclusive: 0.1 µM [inhibitor, full curve, poor fit]"},
      {"smiles": "Cc1nc(Nc2nc3ccccc3o2)nc2c1CCC2", "activity change, negative = inhibition": "inactive: -0.291%"},
      {"smiles": "O=[N+]([O-])c1cnc2ccccn12", "activity change, negative = inhibition": "inactive: -2.51%"},
      {"smiles": "CC[n+]1c(/C=C/C=C/N(C(C)=O)c2ccccc2)sc2cc(OC)ccc21", "activity change, negative = inhibition": "inactive: -5.6%"},
      {"smiles": "COc1ccc(CCNc2oc(-c3ccc(C)cc3)nc2C#N)cc1OC", "Potency": "inconclusive: 17.8 µM [inhibitor, single point]"},
      {"smiles": "Cc1cccc(OCc2nc(C#N)c(NCc3ccc4c(c3)OCO4)o2)c1", "Potency": "inconclusive: 1.41 µM [inhibitor, full curve]"},
      {"smiles": "O=C(COc1ccc([N+](=O)[O-])cc1)NCCC1=CCCCC1", "Potency": "inconclusive: 25.1 µM [inhibitor, single point]"},
      {"smiles": "CCCCCCC1=Cc2cc(OC)c(OC)cc2C(C(C(C)=O)C(=O)OC)O1", "note": "(stereo unspecified)", "Potency": "inconclusive: 4.47 µM [inhibitor, single point]"},
      {"smiles": "CCN(CC)CCn1c2ccccc2c2cnc(N=CN(C)C)c(C#N)c21", "Potency": "inconclusive: 0.794 µM [inhibitor, full curve, poor fit]"},
      {"smiles": "Nc1ccc(N2CCOCC2)c2nonc12", "Potency": "inconclusive: 8.91 µM [inhibitor, full curve, poor fit]"},
      {"smiles": "CNS(=O)(=O)c1cccc(C(=O)OCCCC(=O)c2ccccc2)c1", "Potency": "inconclusive: 21.2 µM [inhibitor, single point]"},
      {"smiles": "O=C(Nc1cccc(Cl)c1)OCC#CCCl", "Potency": "active: 1.58 µM"},
      {"smiles": "COc1ccccc1C1=NN(C2=NN=C(N)Cc3ncnn32)C(O)(C(F)(F)F)C1", "note": "(stereo unspecified)", "Potency": "inconclusive: 6.31 µM [inhibitor, single point]"},
      {"smiles": "O=C(CSc1nc2cc(Cl)c(Cl)cc2[nH]1)c1ccc2c(c1)OCO2", "Potency": "inconclusive: 14.1 µM [inhibitor, partial curve]"},
      {"smiles": "CN(C)CCCNc1ccc(S(N)(=O)=O)cc1[N+](=O)[O-]", "Potency": "inconclusive: 8.91 µM [inhibitor, single point]"}
    ]}
  ]
}
